{"source": "PubChem BioAssay AID1259254 (NCATS, 2017)", "aim": "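Gene knock-downs that lead to re-replication, shown by excess G2 DNA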 (primary screen)", "cell system": "human HCT116 colorectal cancer cells", "reagent": "single siRNA against human genes", "time to read-out": "3 days", "measured": "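Imaged Hoechst DNA stain sorts each cell into a cycle phase by DNA amount; per plate, G2 fraction set to 0% for non-targeting and 100% for GMNN siRNA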", "scale": "G2 robust z-score and G2 cells, % of GMNN control: higher = more G2 cells, more excess DNA replication", "call rule": "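An siRNA counts as active if its G2 robust z-score lies at least 5 MADs above the screen median; here such calls match roughly 38% of GMNN control or more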", "note": "Shown is a random part of about 59,000 reagents tested. Of all reagents, about 1,550 (2.6%) are marked active. 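G2 share is only a proxy for re-replication; each gene was hit by three separate siRNAs, and active genes were retested.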 A number with no mark means an inactive call. Further read-outs or replicates are left out here. Not given: the amount of reagent."}
{"Target gene": "HAP1 (huntingtin associated protein 1)", "PubChem SID": "SID160721257", "G2 robust z-score": -0.672, "G2 cells, % of GMNN control": -1.76}
{"Target gene": "HAP1 (huntingtin associated protein 1)", "PubChem SID": "SID160721258", "G2 robust z-score": -0.292, "G2 cells, % of GMNN control": 0.916}
{"Target gene": "HAP1 (huntingtin associated protein 1)", "PubChem SID": "SID160721259", "G2 robust z-score": 0.496, "G2 cells, % of GMNN control": 6.46}
{"Target gene": "PARP9 (poly(ADP-ribose) polymerase family member 9)", "PubChem SID": "SID160751298", "G2 robust z-score": 1.67, "G2 cells, % of GMNN control": 14.7}
{"Target gene": "PARP9 (poly(ADP-ribose) polymerase family member 9)", "PubChem SID": "SID160751299", "G2 robust z-score": -0.403, "G2 cells, % of GMNN control": 0.129}
{"Target gene": "PARP9 (poly(ADP-ribose) polymerase family member 9)", "PubChem SID": "SID160751300", "G2 robust z-score": -0.319, "G2 cells, % of GMNN control": 0.726}
{"Target gene": "TBC1D9B (TBC1 domain family member 9B)", "PubChem SID": "SID160735353", "G2 robust z-score": 0.41, "G2 cells, % of GMNN control": 5.85}
{"Target gene": "TBC1D9B (TBC1 domain family member 9B)", "PubChem SID": "SID160735354", "G2 robust z-score": -1.21, "G2 cells, % of GMNN control": -5.53}
{"Target gene": "TBC1D9B (TBC1 domain family member 9B)", "PubChem SID": "SID160735355", "G2 robust z-score": -0.997, "G2 cells, % of GMNN control": -4.05}
{"Target gene": "ANKRD23 (ankyrin repeat domain 23)", "PubChem SID": "SID160732653", "G2 robust z-score": -0.161, "G2 cells, % of GMNN control": 1.83}
{"Target gene": "ANKRD23 (ankyrin repeat domain 23)", "PubChem SID": "SID160760866", "G2 robust z-score": 0.712, "G2 cells, % of GMNN control": 7.98}
{"Target gene": "ANKRD23 (ankyrin repeat domain 23)", "PubChem SID": "SID160760868", "G2 robust z-score": -0.817, "G2 cells, % of GMNN control": -2.78}

2 neighbouring entries from above:
{"Target gene": "PARP9 (poly(ADP-ribose) polymerase family member 9)", "PubChem SID": "SID160751299", "G2 robust z-score": -0.403, "G2 cells, % of GMNN control": 0.129}
{"Target gene": "PARP9 (poly(ADP-ribose) polymerase family member 9)", "PubChem SID": "SID160751300", "G2 robust z-score": -0.319, "G2 cells, % of GMNN control": 0.726}

Next entries follow:
{"Target gene": "ITGAE (integrin subunit alpha E)", "PubChem SID": "SID160731149", "G2 robust z-score": -1.2, "G2 cells, % of GMNN control": -5.45}
{"Target gene": "ITGAE (integrin subunit alpha E)", "PubChem SID": "SID160775981", "G2 robust z-score": 1.75, "G2 cells, % of GMNN control": 15.3}
{"Target gene": "ITGAE (integrin subunit alpha E)", "PubChem SID": "SID160775982", "G2 robust z-score": -0.286, "G2 cells, % of GMNN control": 0.952}
{"Target gene": "RPGR (retinitis pigmentosa GTPase regulator)", "PubChem SID": "SID160716004", "G2 robust z-score": -0.452, "G2 cells, % of GMNN control": -0.215}
{"Target gene": "RPGR (retinitis pigmentosa GTPase regulator)", "PubChem SID": "SID160716005", "G2 robust z-score": 0.388, "G2 cells, % of GMNN control": 5.7}
{"Target gene": "RPGR (retinitis pigmentosa GTPase regulator)", "PubChem SID": "SID160716006", "G2 robust z-score": -0.321, "G2 cells, % of GMNN control": 0.706}
